Laboratory results: PubChem BioAssay AID652259 (Drosophila RNAi Screening Center, 2013)
In all, the deposit lists about 22,000 reagents; shown is a random part of those that have a named target and a result. In the full data, 233 (1.1%) were called active. 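Light values are raw, unnormalised plate reads; the ratio scores behind the reporter calls were not deposited.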 Unmarked entries are inactive. A plus sign joins genes that one reagent is predicted to hit. Not given: the amount of reagent, the time to read-out, the dose of the treatment.

Aim: 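Knock-downs that push a Wingless-driven reporter up or down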 (primary screen)
Cells: Drosophila clone 8 imaginal disc epithelial cells
Knock-down reagent: long dsRNA against Drosophila genes
Treatment: pathway stimulated by co-transfected Wingless expression plasmid
Detection: 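Firefly luciferase from a tcf-site Wingless reporter, measured alongside co-transfected Renilla luciferase that tracks transfection; pathway stimulated by a Wingless plasmid; the firefly-to-Renilla ratio is not deposited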
Reading the numbers: firefly reporter light: higher = more Wg reporter light, before normalisation; Renilla control light: higher = more transfected or surviving cells
Hit rule: 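Strong candidates differ from their plate mean by at least two out of four per-plate statistical tests; weak candidates meet just one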
Meaning of the calls: active = candidate regulator (raises or lowers reporter); inactive = not a candidate

gene | DRSC id | reporter change call, replicate 1 | firefly reporter light, replicate 1 | firefly reporter light, replicate 2 | Renilla control light, replicate 1 | Renilla control light, replicate 2
Obp56g | DRSC06432 | – | 4572 | – | 1809 | –
U3-55K | DRSC05982 | – | 5548 | – | 2824 | –
slpr | DRSC18225 | – | 3059 | 4912 | 896 | 1992
CG9727 | DRSC12585 | – | 9504 | – | 2282 | –
tos | DRSC03624 | – | 5184 | – | 2173 | –
Rab9Db + Rab9D + Rab9Fa + 1 more | DRSC17662 | – | 2436 | – | 1187 | –
CG42540 | DRSC08327 | Wg reporter activity raised (active) | 12259 | – | 1122 | –
CG42540 | DRSC08328 | – | 954 | 6022 | 717 | 2060
CG42540 | DRSC08593 | Wg reporter activity raised | 6605 | 1467 | 667 | 285
imd | DRSC05928 | – | 13323 | – | 4480 | –
CG14153 | DRSC10155 | – | 9981 | – | 3941 | –
CG14153 | DRSC22595 | – | 4.74e5 | 4.66e5 | 1.59e5 | 1.69e5
Fatp2 | DRSC03971 | – | 16528 | 6.34e5 | 8838 | 3.04e5
Fatp2 | DRSC04178 | – | 2338 | 8626 | 779 | 2869
Fatp2 | DRSC04330 | – | 4332 | 10273 | 1063 | 2706
CG5793 + Obp93a | DRSC15220 | – | 18569 | – | 5024 | –
Apoltp | DRSC02508 | – | 6528 | – | 2105 | –
CG10949 | DRSC02112 | – | 7954 | – | 3336 | –
mex1 | DRSC11368 | – | 7684 | – | 3769 | –
Cyp6a9 | DRSC07385 | – | 9876 | – | 5299 | –
TTLL12 | DRSC06555 | – | 3113 | 4336 | 307 | 2786
CG10286 | DRSC12520 | – | 4432 | – | 1725 | –
Spn42Dc | DRSC05010 | – | 1827 | 4839 | 72 | 2400
Snap29 | DRSC04721 | – | 3012 | 5048 | 812 | 2192
CG13160 | DRSC06284 | – | 5133 | – | 2530 | –
CG12784 | DRSC14539 | – | 14519 | – | 4359 | –
CG31459 | DRSC13380 | – | 3597 | – | 1632 | –
ppk10 | DRSC01123 | – | 20208 | – | 10080 | –
mud | DRSC19019 | – | 4010 | – | 1099 | –
AstC | DRSC02403 | – | 2664 | 8988 | 970 | 4084
Pfdn2 | DRSC10618 | – | 4250 | – | 2363 | –
CG42355 | DRSC07967 | – | 2272 | – | 1672 | –
Atg12 | DRSC09803 | – | 9412 | – | 3923 | –
CG11353 | DRSC08182 | – | 8490 | – | 3892 | –
kirre | DRSC18785 | – | 18288 | – | 12699 | –
CG8568 | DRSC20113 | – | 1784 | 5319 | 776 | 2201
CG1941 | DRSC06802 | – | 3212 | 9483 | 869 | 3771
CG15594 | DRSC12280 | – | 10320 | – | 2083 | –
Nmd3 | DRSC18687 | – | 2904 | 8474 | 1414 | 2941
Nmd3 | DRSC22834 | – | 6.73e5 | 7.23e5 | 2.15e5 | 2.90e5
ALiX | DRSC14564 | – | 2528 | 7908 | 1099 | 2216
B4 | DRSC01868 | – | 5508 | – | 2874 | –
B4 | DRSC03175 | – | 5552 | 7382 | 1507 | 2179
sens-2 | DRSC02136 | – | 3425 | 8025 | 1554 | 2178
sens-2 | DRSC02613 | – | 3536 | 7754 | 1131 | 1210
sens-2 | DRSC21374 | – | 6.44e5 | 6.08e5 | 95894 | 95744
tn (retired record) | DRSC05768 | – | 14233 | – | 8881 | –
tn (retired record) | DRSC06532 | – | 10277 | – | 4486 | –
CG11893 | DRSC14429 | – | 29078 | – | 20324 | –
Grd | DRSC11178 | – | 4195 | – | 2272 | –
CG5885 | DRSC02910 | – | 5715 | – | 1920 | –
CG33281 | DRSC00421 | – | 1699 | 5466 | 675 | 1832
Pask | DRSC04337 | – | 7008 | – | 2311 | –
CG15118 | DRSC06540 | – | 9787 | – | 3221 | –
CG13545 | DRSC04187 | – | 4017 | 10835 | 979 | 3236
CG14642 | DRSC12228 | – | 5868 | – | 3105 | –

The list goes on, starting with the last 5 of the part before.
gene | DRSC id | reporter change call, replicate 1 | firefly reporter light, replicate 1 | firefly reporter light, replicate 2 | Renilla control light, replicate 1 | Renilla control light, replicate 2
CG33281 | DRSC00421 | – | 1699 | 5466 | 675 | 1832
Pask | DRSC04337 | – | 7008 | – | 2311 | –
CG15118 | DRSC06540 | – | 9787 | – | 3221 | –
CG13545 | DRSC04187 | – | 4017 | 10835 | 979 | 3236
CG14642 | DRSC12228 | – | 5868 | – | 3105 | –
Pros28.2 (retired record) | DRSC16800 | – | 11888 | – | 4368 | –
CG43376 | DRSC02537 | – | 2210 | 10650 | 1148 | 3153
Dysb | DRSC10730 | – | 5622 | – | 2562 | –
Fa2h | DRSC06608 | – | 2982 | 4566 | 708 | 2118
Fa2h | DRSC06609 | – | 3521 | 6423 | 678 | 2308
CG8112 | DRSC16377 | – | 12284 | – | 3200 | –
cal1 | DRSC15725 | – | 3845 | 7127 | 1451 | 2262
CG9083 + Tpc2 | DRSC04625 | – | 15928 | – | 6666 | –
CG8997 | DRSC01900 | – | 1698 | 4375 | 904 | 2411
l(3)psg2 | DRSC10484 | – | 4737 | – | 876 | –
CG18493 | DRSC15334 | – | 12197 | – | 2347 | –
Asph | DRSC06783 | – | 4789 | – | 2592 | –
Asph | DRSC07171 | – | 9072 | – | 3126 | –
Cat | DRSC11110 | – | 4800 | – | 2035 | –
wuc | DRSC06152 | – | 4224 | – | 1553 | –
Fpgs1 | DRSC19857 | – | 20546 | – | 11008 | –
ETH + asRNA:CR43257 | DRSC04612 | – | 3708 | 5761 | 483 | 1497
Naa35 | DRSC04447 | – | 6275 | – | 2827 | –
LanB1 | DRSC03360 | – | 7251 | – | 4007 | –
CG42821 | DRSC13231 | – | 4336 | – | 1811 | –
Damm | DRSC07393 | – | 8224 | – | 2713 | –
Hap40 | DRSC20085 | – | 1873 | 6480 | 749 | 2245
CG13251 | DRSC11699 | – | 11319 | – | 4113 | –
CG7239 | DRSC03038 | – | 9993 | – | 1442 | –
CG13154 | DRSC06279 | – | 6213 | – | 1780 | –
mRpL37 | DRSC16062 | – | 12775 | – | 3818 | –
Ugt50B3 | DRSC04778 | – | 20379 | – | 12194 | –
Ugt50B3 | DRSC04779 | – | 22921 | – | 13592 | –
Ugt50B3 | DRSC21419 | – | 2.36e5 | 2.36e5 | 1.46e5 | 1.23e5
CG8519 | DRSC10985 | – | 1604 | 5673 | 1370 | 2692
BG642163 | DRSC00342 | – | 4505 | 6400 | 1285 | 2118
BG642163 | DRSC00343 | – | 2946 | 8560 | 1232 | 2780
cm + Inx7 | DRSC18753 | – | 1525 | 5095 | 715 | 1877
CG3984 | DRSC15530 | – | 19632 | – | 3347 | –
esg | DRSC03530 | – | 2865 | 7771 | 1649 | 3841
ome | DRSC09322 | – | 2403 | – | 1337 | –
ome | DRSC10282 | – | 5043 | – | 2000 | –
ome | DRSC11380 | – | 5472 | – | 2179 | –
